We go through one compound from the supplement of paper PMC12067093, “Discovery and optimisation of a covalent ligand for TRIM25 and its application to targeted protein ubiquitination” (Chemical Science, 2025).

This is one part of the list.

The assay deals with T1, TRMT12_Q53H54_444_SYAPHVDHIVLDLECCPCPSVG (UniProt Q53H54).
T1 sequence (whole entry): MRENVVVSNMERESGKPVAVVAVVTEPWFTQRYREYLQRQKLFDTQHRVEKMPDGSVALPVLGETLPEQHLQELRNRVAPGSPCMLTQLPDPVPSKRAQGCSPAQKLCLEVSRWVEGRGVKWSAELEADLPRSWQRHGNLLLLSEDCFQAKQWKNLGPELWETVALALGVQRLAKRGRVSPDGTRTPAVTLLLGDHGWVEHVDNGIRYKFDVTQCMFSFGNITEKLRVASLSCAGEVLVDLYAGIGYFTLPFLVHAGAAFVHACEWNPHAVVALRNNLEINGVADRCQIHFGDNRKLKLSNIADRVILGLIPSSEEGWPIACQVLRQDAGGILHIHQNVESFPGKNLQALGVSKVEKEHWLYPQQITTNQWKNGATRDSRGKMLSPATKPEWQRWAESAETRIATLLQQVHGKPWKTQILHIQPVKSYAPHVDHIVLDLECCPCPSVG
Kind of assay: probe-labelled cysteine peptide fold change vs DMSO (competition) (log2 fold change); higher = less target engagement (more negative = stronger competition). Conditions: THP-1, incubation time: 4 h.
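Also: competitive chemoproteomic profiling in live THP-1 cells with an iodoacetamide desthiobiotin (IA-DTB) probe, comparing probe-labelled peptide intensities in compound-treated cells against DMSO-treated controls.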

Consider `CC1Cc2ccccc2N1C(=O)C1CCCN(C(=O)CCl)C1` (mixture of isomers) [TRIM25 ligand 11 (diastereomer mixture)], for which the “probe-labelled cysteine peptide fold change” value is, setting by setting: (10 µM) -0.0822; (50 µM) 0.0539.
